Reference: US20060270601A1
No constants are given. Whether binding was seen depends on the method and setting. In cells and extracts the contact can be indirect. Some results given as binding are weak or reduced against the parent protein; the word gives no strength. Sequences can lack the tags named with a protein.

Protein sequences, listed by entry. Tags and fused reporters are not part of them. Lines headed by an entry give the natural chain unless they say otherwise; changes in a name come on top.
UniProt P98170: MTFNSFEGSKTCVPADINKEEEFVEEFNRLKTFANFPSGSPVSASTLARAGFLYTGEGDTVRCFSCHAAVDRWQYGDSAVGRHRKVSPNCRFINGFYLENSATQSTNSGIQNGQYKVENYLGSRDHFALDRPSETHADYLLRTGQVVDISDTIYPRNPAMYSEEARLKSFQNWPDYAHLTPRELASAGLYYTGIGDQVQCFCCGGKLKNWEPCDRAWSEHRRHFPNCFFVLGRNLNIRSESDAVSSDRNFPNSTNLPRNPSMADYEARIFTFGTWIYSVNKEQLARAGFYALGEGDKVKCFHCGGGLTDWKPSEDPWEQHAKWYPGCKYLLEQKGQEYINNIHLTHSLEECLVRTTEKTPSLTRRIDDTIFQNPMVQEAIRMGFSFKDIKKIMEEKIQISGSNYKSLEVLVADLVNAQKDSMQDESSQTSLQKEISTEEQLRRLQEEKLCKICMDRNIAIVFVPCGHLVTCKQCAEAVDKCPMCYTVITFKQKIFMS

Key:
[1] = biological target: Bir3 domain of XIAP protein fused to GST (Homo sapiens (Human)) (UniProt P98170); test: co-precipitation with glutathione beads from co-transfected COS-7 cells, Western blot
[2] = biological target: Bir3 domain of XIAP protein fused to GST (Homo sapiens (Human)) (UniProt P98170); test: co-precipitation in COS-7 cells (Example 2, as referred to in the description)

binding [1]: binds
binding [2]: binds
B1: myc-tagged ARTS C-terminus (27 C-terminal amino acids of ARTS protein with a myc tag) (peptide, not shown: small tags and cut ends)
chain: YGPSLRLLAPPGAVKGTGQEHQGQGCH
